This passage reports binding results from paper PMC2075366.

The chains behind the UniProt entries cited, without tags or fusion partners.
UniProt Q6R327: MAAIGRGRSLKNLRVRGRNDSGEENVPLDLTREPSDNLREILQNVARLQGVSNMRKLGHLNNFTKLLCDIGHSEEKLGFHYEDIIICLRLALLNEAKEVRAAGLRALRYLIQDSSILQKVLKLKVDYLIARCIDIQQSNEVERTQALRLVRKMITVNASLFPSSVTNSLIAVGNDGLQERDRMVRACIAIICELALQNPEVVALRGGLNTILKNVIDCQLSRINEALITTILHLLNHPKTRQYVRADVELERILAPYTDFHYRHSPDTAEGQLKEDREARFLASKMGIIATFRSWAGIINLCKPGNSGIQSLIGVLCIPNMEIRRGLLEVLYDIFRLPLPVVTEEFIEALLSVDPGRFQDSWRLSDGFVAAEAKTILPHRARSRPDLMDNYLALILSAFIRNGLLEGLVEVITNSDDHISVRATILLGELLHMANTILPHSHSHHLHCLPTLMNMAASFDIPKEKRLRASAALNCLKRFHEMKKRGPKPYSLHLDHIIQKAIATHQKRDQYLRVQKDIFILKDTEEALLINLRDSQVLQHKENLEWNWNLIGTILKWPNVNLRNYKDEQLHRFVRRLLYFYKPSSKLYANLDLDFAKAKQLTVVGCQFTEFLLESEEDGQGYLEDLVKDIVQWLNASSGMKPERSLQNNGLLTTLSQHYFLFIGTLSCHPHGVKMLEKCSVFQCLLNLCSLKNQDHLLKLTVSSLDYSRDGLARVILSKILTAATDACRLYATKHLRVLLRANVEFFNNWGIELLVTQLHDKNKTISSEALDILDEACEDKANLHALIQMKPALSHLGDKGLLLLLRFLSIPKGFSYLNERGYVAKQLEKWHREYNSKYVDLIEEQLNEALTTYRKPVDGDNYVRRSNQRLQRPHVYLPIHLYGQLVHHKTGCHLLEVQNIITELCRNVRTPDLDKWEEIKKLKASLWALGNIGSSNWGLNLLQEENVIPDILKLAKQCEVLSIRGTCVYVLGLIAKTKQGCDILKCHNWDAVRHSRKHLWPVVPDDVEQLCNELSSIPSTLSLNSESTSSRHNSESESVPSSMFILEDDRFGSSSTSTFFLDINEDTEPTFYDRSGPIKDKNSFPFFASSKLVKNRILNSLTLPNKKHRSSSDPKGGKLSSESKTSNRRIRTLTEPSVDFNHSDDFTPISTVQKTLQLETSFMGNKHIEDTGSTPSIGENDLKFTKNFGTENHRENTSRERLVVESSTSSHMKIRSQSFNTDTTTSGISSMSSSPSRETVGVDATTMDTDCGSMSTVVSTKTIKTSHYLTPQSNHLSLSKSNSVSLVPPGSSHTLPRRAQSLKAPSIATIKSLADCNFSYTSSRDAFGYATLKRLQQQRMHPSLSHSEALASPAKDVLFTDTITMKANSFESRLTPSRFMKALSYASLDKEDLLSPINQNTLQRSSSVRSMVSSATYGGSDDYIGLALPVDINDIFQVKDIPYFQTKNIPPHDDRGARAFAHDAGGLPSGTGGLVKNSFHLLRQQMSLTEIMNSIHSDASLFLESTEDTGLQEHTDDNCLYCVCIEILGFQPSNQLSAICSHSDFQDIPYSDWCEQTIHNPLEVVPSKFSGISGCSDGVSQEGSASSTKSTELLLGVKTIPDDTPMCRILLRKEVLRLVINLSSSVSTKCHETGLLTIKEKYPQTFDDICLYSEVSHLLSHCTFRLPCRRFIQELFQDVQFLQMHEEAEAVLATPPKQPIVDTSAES
UniProt Q6MZQ0: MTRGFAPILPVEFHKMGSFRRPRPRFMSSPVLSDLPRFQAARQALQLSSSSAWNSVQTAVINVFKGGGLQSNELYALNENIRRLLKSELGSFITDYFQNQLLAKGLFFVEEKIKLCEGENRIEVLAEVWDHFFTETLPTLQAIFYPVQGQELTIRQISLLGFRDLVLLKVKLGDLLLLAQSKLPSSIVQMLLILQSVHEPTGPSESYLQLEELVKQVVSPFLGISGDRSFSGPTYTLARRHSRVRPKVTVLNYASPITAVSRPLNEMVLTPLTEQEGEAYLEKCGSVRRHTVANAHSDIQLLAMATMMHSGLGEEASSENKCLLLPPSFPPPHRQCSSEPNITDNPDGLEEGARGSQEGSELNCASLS

These are yes or no findings as the source states them, for the method shown. Binding seen in cells or lysates may run through a third protein. These calls come from enrichment with a bait or labelling near it, and not all partners need be listed. No binding means not detected with the bait.

The target in this assay is Rictor (human (endogenous in HeLa and HEK293)) (UniProt Q6R327). Put plainly: affinity purification with mass spectrometry; large scale IPs of endogenous mTOR, Rictor or Raptor from HeLa cells with antibodies on Protein G Dynabeads, against mock IPs; digestion with trypsin on the beads, 2D LC-MS/MS.

“Proline-rich Akt substrate (PRAS40) (from UniProt Q96B36 1-256)”: the binding entry was “no binding”.

As to “PRR5-Like protein (PRR5L) (from UniProt Q6MZQ0 1-368)”, the binding entry was “binds”.
